Data reported in article PMC11932694.
No constants are given. Whether binding was seen depends on the method and setting. In cells and extracts the contact can be indirect. Sequences can lack the tags named with a protein.

Molecular target: T1, Flag-ORMDL3 (human) (UniProt Q8N138)
T1 sequence: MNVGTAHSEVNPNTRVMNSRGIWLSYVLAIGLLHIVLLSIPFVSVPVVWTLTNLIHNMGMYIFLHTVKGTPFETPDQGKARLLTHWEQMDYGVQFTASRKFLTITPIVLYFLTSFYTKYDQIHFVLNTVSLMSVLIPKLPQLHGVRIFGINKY
Assay: co-IP; HEK293T cells co-transfected with MAVS truncations and EV or Flag-ORMDL3; lysates immunoprecipitated with anti-Flag antibody, blots with anti-HA and anti-Flag

binding: no binding
Substance: MAVS with the transmembrane domain (TM) deleted (domain or fragment)
